Screening data, single-dose tests

A: 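Growth of Mycobacterium tuberculosis over 3 days (7H9 medium with glucose and tyloxapol); the read-out is not stated. Compounds at 50 µM. Direction is inferred from retests: higher values go with more growth inhibition. About 69,000 compounds were tested under these conditions; 1.1% (about 760) showed 50% or more at least once.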
B: 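Phenotypic screen: M. tuberculosis growth, cholesterol and DPPC medium, 4 days; the read-out is not stated. Compounds at 50 µM. Direction is inferred from retests: higher values go with more growth inhibition. Of about 69,000 compounds tested this way, about 370 (0.54%) reached 50% or more in at least one test.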

The filed quantity is “Percent Effect” (%). How 0% and 100% were set is not recorded. Most values in the screen are low, and negative values occur. This is an unselected part of the compounds tested. Two or more numbers in one place are separate tests of the same structure; such repeats can differ widely.

* N#CC1(NC(=O)COC(=O)Cn2cccn2)CCCC1 : A: -34.92%; B: -8.483%
* Cc1csc(N2CCN(C(=O)CCCNc3ncccn3)CC2)n1 : A: 0.2114%; B: 4.865%
* O=C1CCC2(CCOC2)CN1Cc1nc2ccc(Cl)cc2[nH]1 (stereo not shown) : A: 4.016%; B: -1.295%
* Cc1cc(N2CCC(NC(C)Cc3ccsc3)CC2)nc(C)n1 (stereo not shown) : A: 41.17%; B: 8.865%
* O=C(O)C(F)(F)F.[H][C@@]12CCN(Cc3ccccc3)C[C@@]1([H])O[C@H](C(=O)NC1CC1)C2 : A: -16.16%; B: -20.18% and 9.436%
* CS(=O)(=O)Cc1ccc(C(=O)NC2CCc3nccn3C2)o1 (stereo not shown) : A: 8.087%; B: 11.99%
* CNC(=O)NC(C)c1nc(-c2ccccc2)c[nH]1 (stereo not shown) : A: -11.8%; B: -25.14%
* CN(C)c1ccc(CN(CCCn2ccnc2)Cc2c[nH]cn2)cc1.O=C(O)CC(O)(CC(=O)O)C(=O)O : A: 51.7%; B: -6.483%
* Cc1cc(C)n(Cc2cc(C(=O)N3CCCC3c3nccs3)n[nH]2)n1 (stereo not shown) : A: 10.14%; B: -4.315%
* Fc1cccc(C2(CNC3CCCNC3)CCOCC2)c1 (stereo not shown) : A: 2.635% and -0.4519%; B: 3.596%
* COCCN1CCC(c2nc3ccc(NC(C)C)cn3n2)CC1.O=C(O)C(F)(F)F : A: -4.839%; B: -12.51%
* Cc1cc(CN2CC[C@]3(C[C@@H](OCC(=O)N(C)C)CO3)C2)no1.O=C(O)C(F)(F)F : A: 2.756%; B: -8.839%
* CC(=O)Nc1nc2c(s1)C1(CCN(C)CC1)Nc1ccccc1S2 : A: -12.57%; B: -16.02%
* COc1ccc(-c2nc(CN3CCc4cnc(C)nc4C3)no2)cc1 : A: 19.11%; B: -4.372%
* Cn1cnc(CN2Cc3nccn3CC2c2ccccc2)c1 (stereo not shown) : A: -35.35%; B: 2.352% and -2.945%
* O=C(NCc1nccn1CCc1ccccc1)NCC1CCC1 : A: 10.54%; B: 9.765%
* Cn1ccnc1CNC[C@H]1Cn2cc(-c3ccccc3)nc2CO1 : A: 4.301% and -7.102%; B: -1.504%
* CNC(=O)c1ccc(C(=O)N2CCCC2c2c(C)nn(C)c2C)cn1 (stereo not shown) : A: 2.555%; B: 2.82%
* Cc1cc2n(n1)CC(CNC1CCN(c3ccccn3)CC1)CN2 (stereo not shown) : A: 3.586% and 6.943%; B: -3.387%
* O=S(=O)(Nc1ccc(Oc2ccc3c(c2)OCO3)cc1)N1CCCCC1 : A: 23.59%; B: -3.66%
* CC(C)(C)OC(=O)NCC(=O)NCc1ccc(Cl)s1 : A: 15.6%; B: 3.787%
* CO[C@@H]1CCN(C(=O)c2cnoc2C)[C@H]1Cc1ccccc1 : A: -10%; B: -25.12% and -24.07%
* Cc1cc(C)n(CCCN(C)c2cc(C3CC3)ncn2)n1 : A: 18.66%; B: -1.501%
* O=C(c1ccn(-c2ccccc2Cl)n1)N1CCCSCC1 : A: 14.05%; B: -8.228%
* CCc1noc(CN(CC)C(=O)CC2C(=O)NCCN2CC(C)(C)C)n1 (stereo not shown) : A: 19.1%; B: 11.28%
* CCCn1nc2c(cc1=O)CN(Cc1nc(C)c(C)o1)CC2 : A: 13.77%; B: -2.803%
* COc1ccccc1OC1CCN(C(=O)CCCn2ccnc2)CC1 : A: -11.93% and 4.522%; B: -4.015%
* CNc1ncc2c(n1)CN(Cc1ccc(Cl)cc1)C2=O : A: 10.99%; B: 3.315%
* CC(C)(C)c1nnc(CN2CCN(C(=O)N3CCCCC3)CC2)o1 : A: -3.556% and -15.84%; B: -1.823%
* Cc1ccc(CN(CCCN2CCOCC2)Cc2cnc(C)n2C)o1.O=C(O)CC(O)(CC(=O)O)C(=O)O : A: -47.42%; B: -6.092%
* CC(C(=O)N1CCN(c2ccccc2Cl)CC1)n1cncn1 (stereo not shown) : A: -5.8%; B: -11.59%
* O=C(O)C(F)(F)F.O=C(O)C(F)(F)F.[H][C@@]12COC[C@]1([H])[C@H](OCc1ccccn1)CN2Cc1ccc(C)o1 : A: 1.475%; B: 0.9429%
* O=C(CCS(=O)(=O)C1CCCC1)N1CCC(O)(C(F)(F)F)C1 (stereo not shown) : A: 5.297%; B: -29.11%
* O=C(O)C(F)(F)F.[H][C@]12CCC(=O)N(c3ccccc3)[C@@]1([H])CCN2c1ncc(F)cn1 : A: -21.05%; B: 1.595%
* [H][C@@]12CN(Cc3ccc(F)c(F)c3)C[C@]1([H])OCC(=O)N2 : A: -23.53% and -0.09295%; B: -15.54%
* Cn1cc(C2=NOC(C(=O)NC3(c4ccccc4F)CCCC3)C2)cn1 (stereo not shown) : A: 19.6%; B: 6.48% and 5.567%
* O=C(O)C(F)(F)F.[H][C@@]12CCN(Cc3nccs3)[C@]1([H])CC[C@H](C(=O)N1CCOCC1)O2 : A: -23.83%; B: -9.628% and -7.487%
* COc1ccc(C)cc1-c1csc(Cn2ccc(=O)[nH]c2=O)n1 : A: 4.424% and 0.8125%; B: -1.887%
* Cc1cc(CN(C)C(=O)c2cc(COc3ccccc3)[nH]n2)n[nH]1 : A: 9.663% and 8.604%; B: 5.179%
* O=C(Nc1cccc(N2CCN(CC3CC3)CC2)c1)C1CCOC1 (stereo not shown) : A: 17.62%; B: -12.59%

5 of the entries, repeated:

Compound	A	B
O=S(=O)(Nc1ccc(Oc2ccc3c(c2)OCO3)cc1)N1CCCCC1	23.59%	-3.66%
Cn1ccnc1CNC[C@H]1Cn2cc(-c3ccccc3)nc2CO1	4.301% and -7.102%	-1.504%
Cc1cc(C)n(Cc2cc(C(=O)N3CCCC3c3nccs3)n[nH]2)n1 (stereo not shown)	10.14%	-4.315%
Cn1cc(C2=NOC(C(=O)NC3(c4ccccc4F)CCCC3)C2)cn1 (stereo not shown)	19.6%	6.48% and 5.567%
CC(C)(C)OC(=O)NCC(=O)NCc1ccc(Cl)s1	15.6%	3.787%

Data taken from ChEMBL document CHEMBL3988442, “University of Dundee, Small-Polar-MMV Screening Library” (2021).